Data on one molecule can be found in publication PMC5005036, “PDZD7-MYO7A complex identified in enriched stereocilia membranes” (eLife, 2016).

No constants are given. Whether binding was seen depends on the method and setting. Binding seen in cells or lysates may run through a third protein. These calls come from enrichment with a bait or labelling near it, and not all partners need be listed.

The target of this test is MYO7A (myosin VIIA), chick stereocilia membranes (chicken (endogenous in E19-E21 chick inner ear)). The test is described as follows: affinity purification with mass spectrometry; 138-1 anti-MYO7A beads on RIPA extract (S7) of chick stereocilia membranes, ~500 ear-equivalents, control IgG beads first; shotgun (data-dependent) mass spectrometry, six runs.

B1: GRXCR1, chick stereocilia membranes (protein, UniProt E1C085 1-293)
chain: MFKGEVKAESERLSRKVRFRVASSHSGRVLKEVYADGEATDSLDSEYTSSSETDQTSRLSEVEGQQNGHGGSECDENENEQDDLLILVRATKEKGFGTKRVNILSKNGTVRGVKHKVSAGQALFDNLSKIFQVSTVPEFGRIVIYTTSLRVVRTTFERCELVRKIFQNHRVKFEEKNIALNSDYGKELDERCRRVCEAPSLPVVFIDGHYLGGAEKILLMNESGELQDLLTKIEKVQHPHECPSCGGFGFLPCSVCHGSKMSVFRNCFTDSFKALKCTACNENGLQRCRSCAS
For the molecule B1, the binding entry is on record as “binds”.
